Data published in PubChem BioAssay AID1487 (National Center for Advancing Translational Sciences (NCATS), 2009).
This is one part of the list. Further columns of the screen follow, without active or inactive calls. Most of these compounds were active or inconclusive in the main read-out, so they are no random draw. Words in brackets tell the shape of the fitted curve; partial curves, single points and poor fits give uncertain potencies.

Assay: qHTS Assay for Modulators of Lamin A Splicing
Settings: HeLa LMNA splicing GFP/RFP minigene ratio, 48 h
In short: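 S3 HeLa stable clones carrying a lamin A-EGFP splicing minigene plus DsRed2 were seeded at 600 cells/well in Opti-MEM with 2% FBS, pin-dosed and incubated 48 h at 37°C. Acumen cytometry (488 nm) gave the GFP/RFP total-intensity ratio.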

[1] = measured here: RFP viability control channel
[2] = measured here: GFP splicing reporter channel

| Compound | AC50 [1] | AC50 [2] |
| --- | --- | --- |
| Cc1ccc(-c2n[nH]c(=S)n2/N=C/c2cccs2)cc1 | 0.631 µM [rising, full curve] | – |
| O=[N+]([O-])c1ccc(Cl)cc1Sc1nc2ccccc2o1 | 25.1 µM [rising, single point] | – |
| N#CCCN1CCN(C(=S)c2ccc(-c3ccc(Cl)cc3)o2)CC1 | – | 12.6 µM [rising, single point] |
| Cc1cc(C)cc(N/C(N)=N/c2nc(C)cc(C)n2)c1 | 12.6 µM [rising, partial curve] | 10 µM [rising, single point] |
| CC(C)CCSc1nc(N)c(C#N)cc1C#N | 0.178 µM [rising, full curve, poor fit] | – |
| c1ccc2c(c1)CCN(c1ncnc3nc[nH]c13)C2 | 14.1 µM [rising, single point] | – |
| COC(=O)Cn1c(=O)oc2ccc(C)cc21 | – | 0.141 µM [rising, full curve, poor fit] |
| COc1ccc(-c2nc(NC(=O)c3n[nH]c(=O)c4ccccc34)sc2C)cc1 | 1.78 µM [rising, full curve] | 1.58 µM [rising, full curve, poor fit] |
| O=C(c1ccc(Cn2cc(Br)cn2)cc1)N1N=C(C(F)F)CC1(O)C(F)F (stereo not given) | 7.08 µM [rising, partial curve, poor fit] | 0.158 µM [rising, full curve, poor fit] |
| Cc1ccsc1/C=N/NC(=O)CSCc1ccc(Cl)cc1 | 12.6 µM [rising, single point] | – |
| Cc1cc(=O)oc2cc(OCC(=O)N3CCc4ccccc4C3)ccc12 | 1.41 µM [falling, partial curve] | – |
| O=S(=O)(c1cccc2c(Cl)cccc12)N1CCCNCC1 | 0.1 µM [falling, full curve, poor fit] | 6.31 µM [falling, partial curve] |
| CCC(CC)C(=O)Nc1cc(Cl)ccc1C | – | 0.0794 µM [rising, full curve, poor fit] |
| CC(=O)Nc1ccc(S(=O)(=O)NC2=C(N3CCN(Cc4ccccc4)CC3)C(=O)c3ccccc3C2=O)cc1 | 31.6 µM [rising, single point] | 12.6 µM [rising, single point] |
| CCOC(=O)c1c(C)[nH]c(C)c1C(=O)CSc1nnc(-c2ccco2)n1Cc1ccccc1 | 6.31 µM [falling, single point] | – |
| CCOC(=O)C1=C(C)N(C)C(C)=C(C(=O)OCC)C1c1ccc(Cl)cc1 | – | 35.5 µM [falling, single point] |
| COC(=O)c1sc(S(=O)(=O)Nc2ccc(C)c(C)c2)c(C(=O)OC)c1C | 11.2 µM [rising, single point] | – |
| COc1ccc2[nH]cc(CCNc3ncnc4ccc(-c5ccccc5C#N)cc34)c2c1 | 15.8 µM [falling, partial curve] | 17.8 µM [falling, single point] |

| Compound | AC50 [1] | AC50 [2] |
| --- | --- | --- |
| COC1CCN(C(=O)c2ccc(OC3CCN(CCc4ccccc4)CC3)cc2)CC1 | 0.0794 µM [falling, full curve, poor fit] | – |
| CC(C)CN(C(=O)CN1CCN(c2ccc(O)cc2)CC1)c1c(N)n(CC(C)C)c(=O)[nH]c1=O | 0.141 µM [rising, full curve] | 0.224 µM [rising, full curve] |
| c1ccc(N2CCN(c3nc4cc5c(cc4s3)OCCO5)CC2)cc1 | 5.01 µM [rising, full curve] | – |
| O=C(Nc1nc(N2C(=O)c3ccccc3C2=O)n(-c2ccccc2)n1)c1ccc(Cl)cc1 | – | 4.47 µM [falling, single point] |
| Cc1ncsc1CCOC(=O)C1C2CC3CC(C2)CC1C3 (stereo not given) | 35.5 µM [rising, single point] | 22.4 µM [rising, single point] |
| O=C(/C=C/c1ccc(Cl)cc1Cl)NC(=S)Nc1ccc(CN2CCOCC2)cc1 | 5.01 µM [rising, full curve, poor fit] | – |
| COc1cccc(Oc2cn[nH]c2-c2ccc(OC)cc2O)c1 | 20 µM [rising, partial curve] | 35.5 µM [rising, single point] |
| CC(=O)c1c(C)[nH]c(C(=O)COC(=O)c2cccc(S(=O)(=O)N(C)c3ccccc3)c2)c1C | 28.2 µM [rising, single point] | 5.62 µM [rising, single point] |
| Cc1cc2ncn(/N=C/c3cccnc3)c2cc1C | 20 µM [rising, single point] | – |
| c1ccc(SCc2cc(-c3ccccc3)no2)cc1 | 35.5 µM [rising, partial curve] | 0.126 µM [rising, full curve, poor fit] |
| COc1cccc(/C=C/C2=CC(C)(C)NC(=S)N2)c1 | 4.47 µM [rising, partial curve, poor fit] | – |
| CCCCCCCC1CC(CSc2ncn[nH]2)OC1=O (stereo not given) | 35.5 µM [rising, single point] | 12.6 µM [rising, single point] |
| CC(=O)c1cccc(S(=O)(=O)NC2CCCCCC2)c1 | 35.5 µM [rising, single point] | – |
| COc1cccc(CCc2nnc(CCC(=O)N3CCCC3c3nccs3)o2)c1 (stereo not given) | 0.158 µM [falling, full curve, poor fit] | – |
| S=C(Nc1ccccc1)N(Cc1ccccc1)Cc1ccncc1 | 0.0891 µM [falling, full curve, poor fit] | – |
| Cc1nc(-c2cccc(S(=O)(=O)N3CCC(C(=O)NCc4ccccc4Cl)CC3)c2)no1 | 2.51 µM [falling, full curve] | 3.98 µM [falling, partial curve] |
| S=C(N/N=C/c1ccc2ncccc2c1)Nc1ccccc1 | 0.501 µM [rising, full curve] | – |
| COc1cccc(-c2nnc3n2N=C(C(C)(C)C)CS3)c1 | 12.6 µM [falling, partial curve] | 15.8 µM [falling, single point] |

Record cards, from the list above.
`O=C(Nc1nc(N2C(=O)c3ccccc3C2=O)n(-c2ccccc2)n1)c1ccc(Cl)cc1` is listed as AC50 [2]: 4.47 µM [falling, single point]
`N#CCCN1CCN(C(=S)c2ccc(-c3ccc(Cl)cc3)o2)CC1` is listed as AC50 [2]: 12.6 µM [rising, single point]
`Cc1cc(=O)oc2cc(OCC(=O)N3CCc4ccccc4C3)ccc12` is listed as AC50 [1]: 1.41 µM [falling, partial curve]
